Assay results published in PubChem BioAssay AID504444 (National Center for Advancing Translational Sciences (NCATS), 2011).
The whole screen tested about 360,000 compounds, of which about 7,500 (2.1%) were called active. This list was built around the results that the source calls inconclusive (neither active nor inactive); the mix of calls is not that of the screen. Calls follow the shape of the dose curve; as a rule, active = well fitted inhibition curve with a large enough effect; inconclusive = small, poorly fitted or top-dose-only effect, or effect the other way; inactive = flat fitted curve, though single readings scatter. Potencies of inconclusive entries are doubtful fits and often do not repeat.

test: Nrf2 qHTS screen for inhibitors; conditions: A549 ARE-Fluc reporter, luciferase luminescence, 18-24 h; activity change, negative = inhibition: at 46 µM (top of the series); also: nearly all actives have a fitted effect of over 60% in size
In short: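 A549 ARE_Fluc cells (5000/well, 5% FBS OPTI-MEM) pre-incubated 2 h, then treated with compounds 18-24 h at 37C/5% CO2 in concentration-response. CellTiter-Fluor viability read first; BugLite luciferase luminescence after 15 min at room temperature gives Nrf2 activity.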
% is scaled to controls: 0 for no effect and ±100 for the full control effect; potency is read from the fitted curve at half-maximal effect.

Structure (SMILES) | activity change, negative = inhibition | Potency
CSC1=C(C#N)C(c2ccc3c(c2)OCO3)C2=C(CCCC2=O)N1 (stereo unspecified) | inactive: -8.59% | 
COc1ccccc1-c1cc(C(F)(F)F)nc(NCc2ccco2)n1 |  | inconclusive: 32.6 µM [falling, partial curve, poor fit]
COc1ccc(CN2CCN(S(=O)(=O)c3ccc(NC(C)=O)cc3)CC2)cc1OC | inactive: -34% | 
C/C=C/COC(=O)c1[nH]c2c(c1C)C(=O)CC(c1ccc(N(C)C)cc1)C2 (stereo unspecified) |  | inconclusive: 14.6 µM [falling, partial curve, poor fit]
COc1cccc(N2CCN(c3c(C#N)c(C(F)(F)F)nn3C)CC2)c1 |  | inconclusive: 9.2 µM [falling, partial curve, poor fit]
COc1ccc(C(=O)C2CCN(C(=O)Nc3ccc(C)cc3)CC2)cc1 |  | inconclusive: 16.4 µM [falling, single point]
CC1=C(C(=O)Nc2cc(C)ccc2C)C2(CCCCCC2)OC1=O |  | inconclusive: 25.9 µM [activator, partial curve]
COn1c(SCc2ccccc2)nc2ccccc2c1=O |  | inconclusive: 7.31 µM [falling, partial curve, poor fit]
O=C(N/N=C/c1cccc(Br)c1)c1ccc(Cn2cc(Br)cn2)o1 |  | inconclusive: 18.4 µM [falling, single point]
Cc1cc(C(=O)CSc2nc3ccccc3c(=O)[nH]2)c(C)n1CC1CCCO1 (stereo unspecified) |  | inconclusive: 16.4 µM [falling, single point]
Cc1ccc(S(=O)(=O)C2(S(=O)(=O)c3ccc(C)cc3)CCCC2)cc1 |  | inconclusive: 7.31 µM [falling, partial curve, poor fit]
Cc1ccc(Sc2ccc(NC(=O)CCN3C(=O)NC4(CCCC4)C3=O)cc2)c(C)c1 |  | inconclusive: 29.1 µM [falling, partial curve, poor fit]
CCCCCCNC(=O)CNC(=S)N(Cc1cccs1)C1CCCCC1 |  | active: 16.4 µM
CCN(CC(=O)Nc1c(F)cccc1F)C(=O)C1(c2ccccc2)CC1 |  | inconclusive: 20.6 µM [falling, partial curve]
CCOC(=O)c1scc(-c2ccc(C)cc2)c1S(=O)(=O)Nc1cccc(CC)c1 |  | inconclusive: 16.4 µM [falling, single point]
CC(C)N(C(=O)c1cc2c(Cl)nc3ccccc3c2s1)C1CCCCC1 | inactive: 11.1% | 
CCOC(=O)c1cc(-c2ccccc2)sc1NC(=O)C(C)Sc1nnc(N)s1 (stereo unspecified) |  | inconclusive: 23.1 µM [falling, partial curve]
CC(C)(C)c1csc(NC(=O)c2ccc(Br)o2)n1 |  | inconclusive: 2.91 µM [activator, partial curve]
Cc1ccc(S(=O)(=O)c2nnn3c2nc(NCc2cccs2)c2sccc23)cc1C |  | inconclusive: 29.1 µM [falling, single point]
CC1CC(C)CN(c2oc(Cc3ccccc3)nc2C#N)C1 (stereo unspecified) |  | inconclusive: 29.1 µM [falling, single point]
O=C(c1ccc(OC2CCN(C(=O)c3cccnc3)CC2)cc1)N1CCCCCC1 |  | inconclusive: 14.6 µM [falling, partial curve, poor fit]

Structure (SMILES) | activity change, negative = inhibition | Potency
Cc1cccc(CS(=O)(=O)c2ncc(Cl)c(C(=O)Nc3nc4ccc(F)cc4s3)n2)c1 | inactive: 4.02% | 
Cn1nnnc1SCCNCc1ccccc1OCc1ccc(Cl)cc1Cl |  | active: 11.6 µM
Cc1ccc(N2CCN(S(=O)(=O)c3ccc4oc(=O)c5ncn(C)c5c4c3)CC2)c(C)c1 |  | inconclusive: 7.31 µM [activator, partial curve, poor fit]
CC(C)OCCCN(C)C1CCN(S(=O)(=O)c2csc(C(N)=O)c2)CC1 |  | inconclusive: 29.1 µM [activator, single point]
CC1=C(SCCC#N)S/C(=C2\SC(C)=C(SCCC#N)S2)S1 |  | inconclusive: 32.6 µM [falling, single point]
Fc1ccc(COc2ccc(C(=S)N3CCCC3)cc2)cc1 |  | inconclusive: 0.731 µM [activator, full curve]
CSc1cccc(NC(=O)Cn2nc(C)c3sc4ccccc4c3c2=O)c1 |  | inconclusive: 29.1 µM [falling, single point]
Cc1cccc(-c2nnc(SCC(=O)N3CCCc4ccccc43)o2)c1 |  | inconclusive: 2.31 µM [falling, partial curve, poor fit]
COc1cc(CN2CCCC(C(=O)c3ccccc3SC)C2)cc(OC)c1 (stereo unspecified) |  | inconclusive: 14.6 µM [falling, single point]
Cn1nnnc1SCC(=O)Nc1ccc2c(c1)OCCO2 |  | inconclusive: 0.291 µM [activator, full curve]
CC(C)n1nc(C(=O)Nc2cccc(S(=O)(=O)NCc3ccco3)c2)c2ccccc2c1=O |  | inconclusive: 29.1 µM [falling, single point]
CC(C)(CNC(=O)c1ccc(-c2cccc(C(F)(F)F)c2)o1)N1CCOCC1 | inactive: 17.5% | 
CCOC(=O)c1cn(CC)c2cc(Cl)c([N+](=O)[O-])cc2c1=O | inactive: 17.3% | 
COc1ccc(NC(=O)CSc2nc(N)c(C#N)cc2C#N)cc1 |  | inconclusive: 6.51 µM [falling, single point]
COc1ccc(-c2nc(N3CCCCCC3)sc2C(=O)c2ccccc2)cc1 |  | inconclusive: 8.2 µM [falling, single point]
Cc1ccccc1-c1nc(CS(=O)(=O)CC(=O)Nc2cccc(C(F)(F)F)c2)c(C)o1 | inactive: -4.01% | 
CCCCOc1ccc(C(=O)Nc2ccncc2)cc1 |  | active: 9.2 µM
COc1cccc(-c2cc(C(=O)N3CCN(C(c4ccccc4)c4ccccc4)CC3)no2)c1 |  | inconclusive: 6.51 µM [falling, full curve, poor fit]
Cc1oc(-c2cccc(Br)c2)nc1Cn1c(=O)cc(-c2ccccc2)c2c(C)nn(C)c21 |  | inconclusive: 29.1 µM [activator, single point]
COC(c1ccc(Cl)cc1)(c1ccc(Cl)cc1)C(Oc1nccc(C)n1)C(=O)O (stereo unspecified) |  | inconclusive: 14.6 µM [falling, single point]

Whole records, looked up by structure:
CCOC(=O)c1scc(-c2ccc(C)cc2)c1S(=O)(=O)Nc1cccc(CC)c1 reads Potency: inconclusive: 16.4 µM [falling, single point]
CCN(CC(=O)Nc1c(F)cccc1F)C(=O)C1(c2ccccc2)CC1 reads Potency: inconclusive: 20.6 µM [falling, partial curve]
